Reference: PubChem BioAssay AID504834 (National Center for Advancing Translational Sciences (NCATS), 2011)
The whole screen tested about 320,000 compounds, of which about 22,000 (6.9%) were called active. The shares of active, inactive and inconclusive entries below differ from those in the screen. The call rests on the fitted dose curve; in most records, active means well fitted inhibition curve with a large enough effect; inconclusive means small, poorly fitted or top-dose-only effect, or another doubt; inactive means no such curve, though single readings can be large or run the other way. Where the call is inconclusive, the potency comes from a doubtful curve fit.
On the % scale 0 is the no-effect control and ±100 the full control effect; potency means the concentration at half of the fitted maximal effect.

Experiment: Primary qHTS for delayed death inhibitors of the malarial parasite plastid, 96 hour incubation
Settings: P. falciparum luciferase reporter growth; series mostly up to 28.7 µM; activity change, negative = inhibition: at the top concentration
In short: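 Infected RBCs, 2% Hct / 0.05% parasitemia final; luciferase-reporter P. falciparum; cpd 96 h, 37 C, 5% CO2; luciferase detection reagent; luminescence.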
In the case of `C=CCOc1ccccc1CN1CCN(CCc2ccccc2)C(CCO)C1` (configuration not stated), the Potency is reported as inconclusive: 11.7 µM [inhibitor, single point]. For `Nc1nnc(SCCN2C(=O)c3ccccc3S2(=O)=O)s1`, the Potency was inconclusive: 13.1 µM [inhibitor, single point]. With `CCc1ccccc1N1CC(C(=O)Nc2cc(C)on2)CC1=O` (configuration not stated) the Potency was inconclusive: 0.522 µM [inhibitor, partial curve, poor fit]. For `CN(CC(=O)Nc1c(Cl)cccc1Cl)C(=O)CCc1nc2sc3c(c2c(=O)[nH]1)CCCC3`, the Potency was inconclusive: 9.28 µM [inhibitor, single point]. For `CC(=O)c1c(C)nn(CC(=O)NC2CCCN(Cc3ccc(CC(C)C)cc3)C2)c1C` (configuration not stated), the Potency was inconclusive: 9.28 µM [inhibitor, partial curve]. With `Cc1cc(C(=O)CN2C(=O)NC(c3ccccc3)(c3ccccc3)C2=O)c(C)n1Cc1ccccc1` the Potency was active: 8.28 µM. With `COc1ccccc1NS(=O)(=O)c1cccc(C(=O)N2CC(C)OC(C)C2)c1` (configuration not stated) the Potency was inconclusive: 0.0026 µM [inhibitor, full curve, poor fit]. With `O=C(NCC(=O)N1CCN(c2ccc(C(F)(F)F)cn2)CC1)c1ccc(Br)o1` the Potency was inconclusive: 18.5 µM [inhibitor, single point]. With `COc1ccccc1NS(=O)(=O)c1cccc(C(=O)NCc2ccncc2)c1` the “activity change, negative = inhibition” value was inactive: 14.1%. For `C=CCn1c(=S)[nH]c2sc3c(c2c1=O)CCC3`, the Potency was inconclusive: 7.38 µM [inhibitor, partial curve, poor fit]. With `Cc1cc(NS(=O)(=O)c2ccc(NC(=O)COc3ccccc3C(C)(C)C)cc2)no1` the Potency was active: 10.4 µM. In the case of `COc1ccc(C(=O)Cc2ccc(OC)c(OC)c2)cc1`, the “activity change, negative = inhibition” value is reported as inactive: 69.9%. In the case of `Cc1ccc(N(C(=O)C2CCC(=O)N2)C2(C(=O)NC3CCCC3)CCCCC2)cc1` (configuration not stated), the Potency is reported as inconclusive: 11.7 µM [inhibitor, partial curve, poor fit]. For `CCCN1C[C@H](CSC)C[C@@H]2c3cccc4[nH]cc(c34)C[C@H]21`, the Potency was active: 10.4 µM. In the case of `O=C(Nc1ccccc1)c1cccc(N2C(=O)C3C4CC(C(Br)C4Br)C3C2=O)c1` (configuration not stated), the Potency is reported as inconclusive: 1.85 µM [inhibitor, partial curve]. For `COCCCn1c(C(=O)NCCN2CCOCC2)cc2c(=O)n3ccccc3nc21`, the “activity change, negative = inhibition” value was inactive: 50.7%. With `CCOC(=O)c1ccc2c(c1)nc(SCc1cn3ccsc3n1)n2CC` the Potency was inconclusive: 10.4 µM [inhibitor, partial curve, poor fit]. For `Cc1[nH]c2ccccc2c1C(=O)C(C)OC(=O)C1CCC1` (configuration not stated), the Potency was inconclusive: 9.28 µM [inhibitor, single point]. With `O=C(NNc1cccc(Cl)n1)c1c(Cl)cccc1Cl` the “activity change, negative = inhibition” value was inactive: 337%. In the case of `O=C(Nc1ccnc(-c2cccnc2)n1)c1ccc(Cl)c(Cl)c1`, the Potency is reported as inconclusive: 18.5 µM [inhibitor, single point]. With `Cc1[nH]c(=O)[nH]c(=O)c1S(=O)(=O)N1CCCC1` the Potency was inconclusive: 0.465 µM [inhibitor, partial curve]. In the case of `COc1cc(SC)ccc1C(=O)Nc1ncc(C)s1`, the “activity change, negative = inhibition” value is reported as inactive: 22.9%. For `CCOC(=O)c1cn(-c2ccccc2CO)c2c(F)c(F)c(F)cc2c1=O`, the Potency was inconclusive: 0.0657 µM [inhibitor, full curve, poor fit]. With `O=S(=O)(Nc1cccc(-n2cnnn2)c1)c1cc(Cl)ccc1Cl` the “activity change, negative = inhibition” value was inactive: 33.2%. For `Cc1oc(-c2cccc(Cl)c2)nc1CN1CCCC(C(=O)NCc2ccco2)C1` (configuration not stated), the Potency was inconclusive: 13.1 µM [inhibitor, single point]. For `Cc1cccc(C(=O)Nc2nnc(S(=O)(=O)N(C)Cc3ccco3)s2)c1`, the “activity change, negative = inhibition” value was inactive: 46.1%. For `CCNc1nc(NCC)n2c(SCC(=O)Nc3cccc(F)c3)nnc2n1`, the “activity change, negative = inhibition” value was inactive: -22.8%. For `COc1ccccc1CN1CCCC(C(=O)c2ccccc2SC)C1` (configuration not stated), the Potency was inconclusive: 3.29 µM [inhibitor, full curve]. With `Cc1ccc(NC(=O)NCc2cccnc2)cc1C` the “activity change, negative = inhibition” value was inactive: -0.474%. In the case of `Cc1nc(-c2ccc(S(=O)(=O)Nc3ccc(S(N)(=O)=O)cc3)cc2)co1`, the Potency is reported as active: 10.4 µM. For `CCOC(=O)c1ccc(N/C(=N\S(=O)(=O)c2ccc(F)cc2F)c2ccccc2)cc1`, the Potency was active: 6.57 µM. With `Cc1cc(C=C(C#N)C#N)ccc1N1CCCC1` the Potency was inconclusive: 18.5 µM [inhibitor, single point]. With `CCN(CC)C(=O)CSc1nc2c(sc(=S)n2-c2ccc(C)cc2C)c(=O)[nH]1` the Potency was inconclusive: 5.86 µM [inhibitor, partial curve, poor fit]. With `Cc1ccc(OCCC(=O)Nc2ccc(S(=O)(=O)N3CCCC3)cc2)cc1` the Potency was inconclusive: 13.1 µM [inhibitor, single point]. With `Cc1ccc(N=CC2=C(O)CC(C)(C)CC2=O)nc1` the Potency was inconclusive: 18.5 µM [inhibitor, single point]. For `COC(=O)[C@H](C)[C@@H]1C[C@@]1(C)[C@@H](NC(=O)OCc1ccccc1)c1ccccc1`, the Potency was inconclusive: 18.5 µM [inhibitor, single point]. With `COc1ccc(CNC(=O)CN(Cc2ccccc2)S(=O)(=O)c2ccc(Cl)cc2)cc1` the Potency was inconclusive: 18.5 µM [inhibitor, single point]. With `O=C(Cn1nc(CNc2ccc(Cl)cc2)[n+]2c1CCCCC2)c1ccc(Cl)cc1` the Potency was inconclusive: 0.928 µM [inhibitor, partial curve, poor fit]. For `CCN(CC)C(=O)C(Sc1nnnn1-c1ccc(O)cc1)c1ccccc1` (configuration not stated), the Potency was inconclusive: 13.1 µM [inhibitor, single point]. With `O=C(Nc1nnc(S(=O)(=O)Nc2ccccc2)s1)c1ccccc1Cl` the Potency was inconclusive: 11.7 µM [inhibitor, single point]. In the case of `CCc1c(C)nc(SC(C(=O)O)c2ccccc2)c(C#N)c1C` (configuration not stated), the Potency is reported as inconclusive: 10.4 µM [inhibitor, single point]. In the case of `Cc1cc(-c2n[nH]c(=S)n2/N=C/c2cccc([N+](=O)[O-])c2)n[nH]1`, the “activity change, negative = inhibition” value is reported as inactive: 1.45%. In the case of `NC(=O)[C@@H]1CCCN1C(=O)c1ccc2nc(Cc3cccc(Cl)c3)oc2c1`, the Potency is reported as active: 10.4 µM. With `COc1ccc(C2c3c(C)nn(-c4ccccc4)c3NC(=O)N2c2ccccc2)cc1` (configuration not stated) the Potency was inconclusive: 8.28 µM [inhibitor, single point]. For `O=[N+]([O-])/C=C/c1cn(Cc2ccc(Cl)cc2)c2ccccc12`, the Potency was inconclusive: 4.15 µM [inhibitor, single point]. With `Cc1ccc(-c2cc(-c3ccc(C)cc3)[n+](-c3ccc(C(=O)O)cc3)c(-c3ccc(C)cc3)c2)cc1` the Potency was inconclusive: 10.4 µM [inhibitor, single point]. In the case of `C=CCn1c(=O)c2ccccc2n2c(SC(C)C(=O)Nc3nc(-c4ccccc4)cs3)nnc12` (configuration not stated), the Potency is reported as inconclusive: 11.7 µM [inhibitor, single point]. With `Cc1cc(SCC(=O)NCCC2=CCCCC2)nc2ccccc12` the Potency was inconclusive: 3.7 µM [inhibitor, partial curve, poor fit]. For `CSC1=NCCN1C(=O)c1ccc(Br)o1`, the Potency was inconclusive: 18.5 µM [inhibitor, single point]. In the case of `CC(C)NCCOCCSc1ccc(Cl)cc1`, the Potency is reported as inconclusive: 10.4 µM [inhibitor, partial curve, poor fit]. With `COC(=O)c1c(C(=O)OC)c2ccccn2c1C(=O)c1ccc([N+](=O)[O-])cc1` the “activity change, negative = inhibition” value was inactive: -19.8%. With `COc1ccc(CCNC(=O)c2ccc(Cl)cc2)cc1OC` the Potency was inconclusive: 0.294 µM [inhibitor, partial curve, poor fit]. For `CC(=O)Nc1ccccc1`, the Potency was inconclusive: 0.0601 µM [inhibitor, full curve, poor fit]. In the case of `CN1CCN(C(=O)COc2ccc(N(C)S(=O)(=O)c3ccc(F)cc3)cc2)CC1`, the “activity change, negative = inhibition” value is reported as inactive: -13.1%. In the case of `CCc1ccc(NC(=O)COC(=O)/C=C/c2c(C)nn(C3CCS(=O)(=O)C3)c2Cl)cc1` (configuration not stated), the “activity change, negative = inhibition” value is reported as inactive: 0.929%. With `O=C(CCC(=O)N1CCCC1)Nc1nnc(C(F)(F)F)s1` the Potency was inconclusive: 11.7 µM [inhibitor, single point]. With `O=C1OC2(c3ccccc31)c1cc(I)c(O)c(I)c1Oc1c2cc(I)c(O)c1I` the Potency was active: 8.28 µM. For `O=C(CN(C(=O)c1csnn1)c1cccc2c1CCCC2)NC1CCCC1`, the Potency was inconclusive: 7.38 µM [inhibitor, partial curve, poor fit]. For `O=C(C1=C[C@H](c2ccccc2)C[C@H](OCCCCO)O1)N1CCN(Cc2ccc3c(c2)OCO3)CC1`, the Potency was inconclusive: 4.15 µM [inhibitor, full curve]. In the case of `CCOC(=O)c1c2c(c(=S)n(-c3ccccc3)c1N)CCC2`, the Potency is reported as inconclusive: 14.7 µM [inhibitor, partial curve, poor fit]. In the case of `CCOc1ccc(N(CC(=O)NCCOc2ccc(C)cc2)S(=O)(=O)c2ccccc2)cc1`, the Potency is reported as inconclusive: 2.94 µM [inhibitor, partial curve, poor fit]. With `CCCCc1ccc(C(=O)O)nc1` the Potency was inconclusive: 4.78 µM [inhibitor, partial curve, poor fit]. With `O=C(/C=C/c1ccccc1)CC(O)(c1ccccc1)C(F)(F)F` (configuration not stated) the Potency was inconclusive: 14.7 µM [inhibitor, partial curve]. For `CN1CCN(C(c2ccccn2)c2cc(Cl)c3cccnc3c2O)CC1` (configuration not stated), the Potency was inconclusive: 10.4 µM [inhibitor, single point]. In the case of `CC(C)(C)c1ccc(-c2c(C#N)c(N)nc3c2CCCC3)s1`, the Potency is reported as inconclusive: 0.928 µM [inhibitor, partial curve]. In the case of `CCOc1cc(CNc2ccc3c(c2)OCCO3)cc(Br)c1OCC`, the Potency is reported as active: 2.08 µM. For `O=C(N/N=C/c1cn(-c2ccccc2)nc1-c1ccccc1)c1ccco1`, the “activity change, negative = inhibition” value was inactive: 37.3%.
